To fix the notation:
B1: Rap2a (protein, UniProt P10114 1-183)
chain: MREYKVVVLGSGGVGKSALTVQFVTGTFIEKYDPTIEDFYRKEIEVDSSPSVLEILDTAGTEQFASMRDLYIKNGQGFILVYSLVNQQSFQDIKPMRDQIIRVKRYEKVPVILVGNKVDLESEREVSSSEGRALAEEWGCPFMETSAKSKTMVDELFAEIVRQMNYAAQPDKDDPCCSACNIQ

Sequences of proteins named here, by UniProt entry; tags and fusion partners are left off.
UniProt Q9UKE5: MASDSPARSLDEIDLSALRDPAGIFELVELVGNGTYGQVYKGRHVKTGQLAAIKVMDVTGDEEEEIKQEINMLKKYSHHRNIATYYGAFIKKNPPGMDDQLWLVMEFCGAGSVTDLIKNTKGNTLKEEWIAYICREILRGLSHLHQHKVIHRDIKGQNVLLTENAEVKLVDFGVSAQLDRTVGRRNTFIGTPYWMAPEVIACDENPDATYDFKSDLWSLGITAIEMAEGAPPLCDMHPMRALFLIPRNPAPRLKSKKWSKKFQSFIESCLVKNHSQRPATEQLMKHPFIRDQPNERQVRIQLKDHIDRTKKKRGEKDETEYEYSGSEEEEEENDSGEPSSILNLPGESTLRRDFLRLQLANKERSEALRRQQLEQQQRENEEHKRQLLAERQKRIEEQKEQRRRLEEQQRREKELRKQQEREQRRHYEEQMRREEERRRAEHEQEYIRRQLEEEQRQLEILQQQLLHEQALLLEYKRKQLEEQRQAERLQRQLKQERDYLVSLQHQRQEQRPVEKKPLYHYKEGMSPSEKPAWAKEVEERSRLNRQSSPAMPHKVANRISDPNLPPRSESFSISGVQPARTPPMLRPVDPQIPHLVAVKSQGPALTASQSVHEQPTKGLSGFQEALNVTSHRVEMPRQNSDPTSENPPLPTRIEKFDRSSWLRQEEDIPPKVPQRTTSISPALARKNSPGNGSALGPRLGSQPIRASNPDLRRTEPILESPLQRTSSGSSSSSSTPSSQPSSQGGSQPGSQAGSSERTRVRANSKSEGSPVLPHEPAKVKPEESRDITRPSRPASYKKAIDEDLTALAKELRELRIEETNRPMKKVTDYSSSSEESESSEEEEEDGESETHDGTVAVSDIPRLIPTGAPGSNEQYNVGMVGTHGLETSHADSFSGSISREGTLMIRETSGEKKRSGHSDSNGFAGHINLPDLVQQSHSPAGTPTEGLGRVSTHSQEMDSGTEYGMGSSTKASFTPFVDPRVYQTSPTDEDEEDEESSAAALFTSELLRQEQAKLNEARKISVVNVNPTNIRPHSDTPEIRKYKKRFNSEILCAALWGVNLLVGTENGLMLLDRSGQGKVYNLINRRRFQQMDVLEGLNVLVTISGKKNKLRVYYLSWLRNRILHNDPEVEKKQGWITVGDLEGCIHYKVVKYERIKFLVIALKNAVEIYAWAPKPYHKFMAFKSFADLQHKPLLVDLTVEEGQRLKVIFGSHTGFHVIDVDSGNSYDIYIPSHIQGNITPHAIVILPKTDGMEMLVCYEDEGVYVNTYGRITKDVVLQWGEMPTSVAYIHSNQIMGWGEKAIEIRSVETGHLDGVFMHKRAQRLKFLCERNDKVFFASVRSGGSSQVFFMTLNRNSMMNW
UniProt P49023: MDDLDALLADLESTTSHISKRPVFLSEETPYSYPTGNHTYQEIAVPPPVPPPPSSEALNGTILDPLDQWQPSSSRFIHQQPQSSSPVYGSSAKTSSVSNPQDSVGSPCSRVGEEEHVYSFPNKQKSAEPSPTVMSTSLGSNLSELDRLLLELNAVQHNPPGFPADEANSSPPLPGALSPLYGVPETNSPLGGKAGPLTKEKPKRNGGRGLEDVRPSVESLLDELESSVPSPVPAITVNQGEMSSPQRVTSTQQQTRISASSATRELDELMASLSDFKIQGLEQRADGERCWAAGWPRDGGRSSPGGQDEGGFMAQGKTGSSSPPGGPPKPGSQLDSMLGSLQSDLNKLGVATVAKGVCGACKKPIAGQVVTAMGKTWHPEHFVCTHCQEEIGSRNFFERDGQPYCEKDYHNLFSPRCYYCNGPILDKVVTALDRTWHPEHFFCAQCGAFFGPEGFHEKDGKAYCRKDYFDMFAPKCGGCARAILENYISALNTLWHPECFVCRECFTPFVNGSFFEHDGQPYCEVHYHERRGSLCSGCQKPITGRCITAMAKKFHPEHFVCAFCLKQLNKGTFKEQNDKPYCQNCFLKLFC
UniProt Q05397: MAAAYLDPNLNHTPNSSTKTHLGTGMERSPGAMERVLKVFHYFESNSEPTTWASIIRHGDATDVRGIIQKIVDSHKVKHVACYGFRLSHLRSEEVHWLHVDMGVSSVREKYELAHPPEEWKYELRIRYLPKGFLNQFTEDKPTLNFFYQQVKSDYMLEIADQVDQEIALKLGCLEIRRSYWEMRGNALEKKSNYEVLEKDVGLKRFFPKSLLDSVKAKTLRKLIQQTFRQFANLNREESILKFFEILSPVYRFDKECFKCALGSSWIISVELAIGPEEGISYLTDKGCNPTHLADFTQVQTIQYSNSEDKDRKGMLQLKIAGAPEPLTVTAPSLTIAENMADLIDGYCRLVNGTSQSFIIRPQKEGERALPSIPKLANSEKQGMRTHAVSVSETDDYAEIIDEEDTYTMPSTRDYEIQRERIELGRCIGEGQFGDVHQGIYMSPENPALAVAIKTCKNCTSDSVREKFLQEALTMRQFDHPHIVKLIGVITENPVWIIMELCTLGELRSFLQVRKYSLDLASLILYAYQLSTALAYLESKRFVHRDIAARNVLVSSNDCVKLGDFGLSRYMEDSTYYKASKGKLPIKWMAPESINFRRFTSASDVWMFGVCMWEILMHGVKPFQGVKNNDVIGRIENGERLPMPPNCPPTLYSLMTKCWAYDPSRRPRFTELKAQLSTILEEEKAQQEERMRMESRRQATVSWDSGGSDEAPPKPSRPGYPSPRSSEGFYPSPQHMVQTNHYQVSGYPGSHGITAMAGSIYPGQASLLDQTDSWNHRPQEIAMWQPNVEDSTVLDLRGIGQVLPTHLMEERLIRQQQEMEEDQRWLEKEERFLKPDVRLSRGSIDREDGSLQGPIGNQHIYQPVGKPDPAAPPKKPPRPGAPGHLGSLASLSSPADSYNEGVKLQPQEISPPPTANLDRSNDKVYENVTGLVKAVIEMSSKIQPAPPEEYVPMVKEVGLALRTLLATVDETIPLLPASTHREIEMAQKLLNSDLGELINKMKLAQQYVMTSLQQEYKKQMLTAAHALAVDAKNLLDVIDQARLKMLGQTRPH
UniProt P21333: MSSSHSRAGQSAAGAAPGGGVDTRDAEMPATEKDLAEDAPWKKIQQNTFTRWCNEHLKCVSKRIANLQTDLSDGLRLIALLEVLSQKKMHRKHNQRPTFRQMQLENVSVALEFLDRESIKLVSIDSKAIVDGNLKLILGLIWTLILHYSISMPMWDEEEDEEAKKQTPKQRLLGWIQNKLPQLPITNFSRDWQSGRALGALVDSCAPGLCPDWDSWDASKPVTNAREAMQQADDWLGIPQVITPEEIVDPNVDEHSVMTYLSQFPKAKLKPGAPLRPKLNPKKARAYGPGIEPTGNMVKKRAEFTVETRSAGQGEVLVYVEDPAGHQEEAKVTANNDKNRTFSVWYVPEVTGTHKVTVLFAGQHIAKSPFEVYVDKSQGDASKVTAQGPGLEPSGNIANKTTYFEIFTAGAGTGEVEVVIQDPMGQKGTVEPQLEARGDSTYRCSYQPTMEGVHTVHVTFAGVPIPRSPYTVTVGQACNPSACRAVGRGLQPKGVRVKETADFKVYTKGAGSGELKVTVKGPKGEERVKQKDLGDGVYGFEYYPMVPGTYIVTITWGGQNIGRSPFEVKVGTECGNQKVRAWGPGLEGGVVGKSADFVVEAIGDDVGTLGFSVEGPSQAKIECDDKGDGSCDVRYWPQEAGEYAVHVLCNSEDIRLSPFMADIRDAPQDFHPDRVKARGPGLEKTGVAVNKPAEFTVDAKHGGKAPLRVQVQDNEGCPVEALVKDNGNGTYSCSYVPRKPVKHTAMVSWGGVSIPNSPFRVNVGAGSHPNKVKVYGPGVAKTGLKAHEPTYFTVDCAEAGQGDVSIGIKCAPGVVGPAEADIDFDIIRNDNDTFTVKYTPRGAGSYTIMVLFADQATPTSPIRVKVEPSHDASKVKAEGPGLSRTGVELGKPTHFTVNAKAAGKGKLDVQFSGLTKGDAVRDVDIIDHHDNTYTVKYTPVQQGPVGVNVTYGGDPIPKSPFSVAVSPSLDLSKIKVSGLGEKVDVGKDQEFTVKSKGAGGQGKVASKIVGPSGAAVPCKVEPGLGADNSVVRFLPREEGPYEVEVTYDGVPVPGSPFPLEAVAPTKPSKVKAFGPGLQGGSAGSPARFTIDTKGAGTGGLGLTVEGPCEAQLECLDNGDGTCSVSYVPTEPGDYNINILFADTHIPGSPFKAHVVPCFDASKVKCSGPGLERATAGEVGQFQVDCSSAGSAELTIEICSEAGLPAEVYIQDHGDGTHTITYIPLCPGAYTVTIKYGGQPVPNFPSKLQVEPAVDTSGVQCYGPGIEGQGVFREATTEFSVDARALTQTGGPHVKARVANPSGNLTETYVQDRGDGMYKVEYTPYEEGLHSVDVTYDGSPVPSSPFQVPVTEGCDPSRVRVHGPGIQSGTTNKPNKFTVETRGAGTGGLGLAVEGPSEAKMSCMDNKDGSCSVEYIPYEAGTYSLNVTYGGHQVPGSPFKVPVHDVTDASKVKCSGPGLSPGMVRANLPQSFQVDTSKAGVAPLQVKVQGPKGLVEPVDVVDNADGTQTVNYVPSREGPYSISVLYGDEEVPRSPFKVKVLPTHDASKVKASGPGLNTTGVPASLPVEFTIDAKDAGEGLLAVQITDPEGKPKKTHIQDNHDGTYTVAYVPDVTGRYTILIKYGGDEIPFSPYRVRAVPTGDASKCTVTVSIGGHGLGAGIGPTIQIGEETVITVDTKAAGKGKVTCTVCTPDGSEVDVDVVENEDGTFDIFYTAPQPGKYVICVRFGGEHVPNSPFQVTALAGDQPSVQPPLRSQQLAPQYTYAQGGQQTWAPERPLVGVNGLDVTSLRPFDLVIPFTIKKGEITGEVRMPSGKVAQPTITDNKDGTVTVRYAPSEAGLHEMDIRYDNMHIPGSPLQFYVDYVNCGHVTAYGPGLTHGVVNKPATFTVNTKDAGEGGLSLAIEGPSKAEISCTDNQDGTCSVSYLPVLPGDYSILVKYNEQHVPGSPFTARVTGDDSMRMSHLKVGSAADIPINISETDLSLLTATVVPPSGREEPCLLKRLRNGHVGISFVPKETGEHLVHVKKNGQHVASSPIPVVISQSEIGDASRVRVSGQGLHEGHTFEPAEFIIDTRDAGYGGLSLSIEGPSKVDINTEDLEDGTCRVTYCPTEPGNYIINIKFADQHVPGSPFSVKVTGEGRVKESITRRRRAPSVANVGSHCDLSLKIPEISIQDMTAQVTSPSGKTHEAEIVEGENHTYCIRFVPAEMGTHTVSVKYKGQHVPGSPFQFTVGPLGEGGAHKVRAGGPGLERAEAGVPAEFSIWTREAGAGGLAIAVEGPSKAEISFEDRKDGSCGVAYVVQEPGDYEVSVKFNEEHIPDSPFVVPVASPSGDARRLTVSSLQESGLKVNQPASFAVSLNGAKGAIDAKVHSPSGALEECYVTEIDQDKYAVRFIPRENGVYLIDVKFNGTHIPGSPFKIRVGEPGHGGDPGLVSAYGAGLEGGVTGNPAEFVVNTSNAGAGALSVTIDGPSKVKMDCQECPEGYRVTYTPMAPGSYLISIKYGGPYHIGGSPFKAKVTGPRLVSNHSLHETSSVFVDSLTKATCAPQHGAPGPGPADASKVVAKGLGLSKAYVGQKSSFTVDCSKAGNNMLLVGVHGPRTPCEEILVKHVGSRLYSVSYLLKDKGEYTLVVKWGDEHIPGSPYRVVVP
UniProt Q86UX7: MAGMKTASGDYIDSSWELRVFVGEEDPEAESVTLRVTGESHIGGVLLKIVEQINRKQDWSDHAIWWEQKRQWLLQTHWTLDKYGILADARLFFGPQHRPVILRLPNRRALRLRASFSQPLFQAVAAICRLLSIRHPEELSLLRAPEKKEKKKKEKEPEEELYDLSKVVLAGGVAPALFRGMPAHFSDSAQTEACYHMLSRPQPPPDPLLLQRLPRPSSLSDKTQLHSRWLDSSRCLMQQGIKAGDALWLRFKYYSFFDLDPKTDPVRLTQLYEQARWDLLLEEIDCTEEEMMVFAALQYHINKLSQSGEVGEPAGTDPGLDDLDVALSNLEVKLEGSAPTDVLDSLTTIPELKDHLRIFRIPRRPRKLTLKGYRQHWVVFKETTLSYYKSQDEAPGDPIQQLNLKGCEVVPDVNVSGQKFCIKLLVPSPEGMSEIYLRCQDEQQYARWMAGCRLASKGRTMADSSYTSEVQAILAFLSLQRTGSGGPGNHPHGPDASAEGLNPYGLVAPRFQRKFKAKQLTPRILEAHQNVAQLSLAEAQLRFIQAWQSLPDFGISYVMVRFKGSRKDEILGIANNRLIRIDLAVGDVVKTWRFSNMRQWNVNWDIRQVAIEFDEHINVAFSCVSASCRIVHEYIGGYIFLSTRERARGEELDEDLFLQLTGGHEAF

No constants are given. Whether binding was seen depends on the method and setting. In cells and extracts the contact can be indirect. Some entries that bind do so weakly or less than the wild type.

The source of these data is article PMC12616069.

The test deals with TRAF2 and NCK interacting kinase (human (endogenous in platelets)) (UniProt Q9UKE5). The test is described as follows: co-IP; endogenous TNIK immunoprecipitated (1 ug TNIK antibody, protein A/G beads) from lysates of resting or collagen-stimulated (25 ug/mL, 3 min) human platelets prepared under non-aggregating conditions; 1% NP40 lysis buffer (150 mM NaCl, 10 mM Tris, 5 mM EDTA, pH 7.3); beads washed in 0.5% NP40 buffer; immunoblot of the precipitate. On the technique in general: Immunoblotting shows a protein as a band on a membrane.
Regarding paxillin (from UniProt P49023 1-591), the binding entry is given as “binds”.

“focal adhesion kinase (from UniProt Q05397 1-1052)”: the binding entry is recorded as “binds”.

With filamin A (from UniProt P21333 1-2647), the binding result is listed as “binds”.

On to kindlin-3 (from UniProt Q86UX7 1-667), for which the binding entry is “binds”.

For B1, the binding result is listed as “binds”.
